Measurements as given in the supplement of paper PMC8728848.
The list shows a part of the results.

Legend:
Test in all cases: glycan array binding signal (z-score within array); higher = stronger binding
Details in all cases: glycan notation: IUPAC condensed, linker removed
Gal(a1-3)Gal(b1-4)GlcNAc = biological target: Gal(a1-3)Gal(b1-4)GlcNAc
Procedure, shortened: (§1)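 Glycan array data were curated from 3228 arrays in the Consortium for Functional Glycomics database and kept only where the protein sequence was available. Glycan names were converted to IUPAC-condensed notation, and columns mapping to the same glycan were averaged. The binding signal is a within-array Z-score, averaged across arrays of the same protein sequence at different concentrations or buffers and across linkers. Negative Z-scores can be read as non-binding.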

[1] = biological target: Gal(a1-3)Gal(b1-4)GlcNAc(b1-2)Man
Procedure, shortened: as §1

[2] = biological target: Gal(a1-3)Gal(b1-4)GlcNAc(b1-2)Man(a1-3)[Gal(a1-3)Gal(b1-4)GlcNAc(b1-2)Man(a1-6)]Man(b1-4)GlcNAc(b1-4)GlcNAc
Procedure, shortened: as §1

[3] = biological target: Gal(a1-3)Gal(b1-4)GlcNAc(b1-3)GalNAc
Procedure, shortened: as §1

[4] = biological target: Gal(a1-3)Gal(b1-4)GlcNAc(b1-6)GalNAc
Procedure, shortened: as §1

[5] = biological target: Gal(a1-3)Gal(b1-4)[Fuc(a1-3)]GlcNAc
Procedure, shortened: as §1

[6] = biological target: Gal(a1-3)Gal(b1-4)[Fuc(a1-3)]GlcNAc(b1-2)Man(a1-3)[Gal(a1-3)Gal(b1-4)[Fuc(a1-3)]GlcNAc(b1-2)Man(a1-6)]Man(b1-4)GlcNAc(b1-4)GlcNAc
Procedure, shortened: as §1

Gal(a1-3)GalNAc = biological target: Gal(a1-3)GalNAc
Procedure, shortened: as §1

[7] = biological target: Gal(a1-3)[Gal(a1-4)]Gal(b1-4)GlcNAc
Procedure, shortened: as §1

[8] = biological target: Gal(a1-4)Gal(b1-3)GlcNAc(b1-2)Man(a1-3)[Gal(a1-4)Gal(b1-3)GlcNAc(b1-2)Man(a1-6)]Man(b1-4)GlcNAc(b1-4)GlcNAc
Procedure, shortened: as §1

Gal(a1-4)Gal(b1-4)Glc = biological target: Gal(a1-4)Gal(b1-4)Glc
Procedure, shortened: as §1

Gal(a1-4)Gal(b1-4)GlcNAc = biological target: Gal(a1-4)Gal(b1-4)GlcNAc
Procedure, shortened: as §1

[9] = biological target: Gal(a1-4)Gal(b1-4)GlcNAc(b1-2)Man(a1-3)[Gal(a1-4)Gal(b1-4)GlcNAc(b1-2)Man(a1-6)]Man(b1-4)GlcNAc(b1-4)GlcNAc
Procedure, shortened: as §1

[10] = biological target: Gal(a1-4)Gal(b1-4)GlcNAc(b1-3)Gal(b1-4)Glc
Procedure, shortened: as §1

Gal(a1-4)GlcNAc = biological target: Gal(a1-4)GlcNAc
Procedure, shortened: as §1

Gal(a1-6)Glc = biological target: Gal(a1-6)Glc
Procedure, shortened: as §1

Gal(b1-2)Gal = biological target: Gal(b1-2)Gal
Procedure, shortened: as §1

Gal(b1-3)Gal = biological target: Gal(b1-3)Gal
Procedure, shortened: as §1

Gal(b1-3)Gal(b1-4)GlcNAc = biological target: Gal(b1-3)Gal(b1-4)GlcNAc
Procedure, shortened: as §1

Gal(b1-3)GalNAc = biological target: Gal(b1-3)GalNAc
Procedure, shortened: as §1

[11] = biological target: Gal(b1-3)GalNAc(a1-3)[Fuc(a1-2)]Gal(b1-4)Glc
Procedure, shortened: as §1

[12] = biological target: Gal(b1-3)GalNAc(a1-3)[Fuc(a1-2)]Gal(b1-4)GlcNAc
Procedure, shortened: as §1

Gal(b1-3)GalNAc(b1-3)Gal = biological target: Gal(b1-3)GalNAc(b1-3)Gal
Procedure, shortened: as §1

[13] = biological target: Gal(b1-3)GalNAc(b1-3)Gal(a1-4)Gal(b1-4)Glc
Procedure, shortened: as §1

[14] = biological target: Gal(b1-3)GalNAc(b1-4)Gal(b1-4)Glc
Procedure, shortened: as §1

[15] = biological target: Gal(b1-3)GalNAc(b1-4)[Neu5Ac(a2-3)]Gal(b1-4)Glc
Procedure, shortened: as §1

Gal(b1-3)GlcNAc = biological target: Gal(b1-3)GlcNAc
Procedure, shortened: as §1

[16] = biological target: Gal(b1-3)GlcNAc(a1-3)Gal(b1-4)GlcNAc
Procedure, shortened: as §1

[17] = biological target: Gal(b1-3)GlcNAc(a1-6)Gal(b1-4)GlcNAc
Procedure, shortened: as §1

Gal(b1-3)GlcNAc(b1-2)Man = biological target: Gal(b1-3)GlcNAc(b1-2)Man
Procedure, shortened: as §1

[18] = biological target: Gal(b1-3)GlcNAc(b1-2)Man(a1-3)[Gal(b1-3)GlcNAc(b1-2)Man(a1-6)]Man(b1-4)GlcNAc(b1-4)GlcNAc
Procedure, shortened: as §1

[19] = biological target: Gal(b1-3)GlcNAc(b1-2)Man(a1-3)[Gal(b1-3)GlcNAc(b1-2)Man(a1-6)]Man(b1-4)GlcNAc(b1-4)[Fuc(a1-6)]GlcNAc
Procedure, shortened: as §1

[20] = biological target: Gal(b1-3)GlcNAc(b1-2)Man(a1-3)[GlcNAc(b1-4)][Gal(b1-3)GlcNAc(b1-2)Man(a1-6)]Man(b1-4)GlcNAc(b1-4)GlcNAc
Procedure, shortened: as §1

[21] = biological target: Gal(b1-3)GlcNAc(b1-2)[Gal(b1-3)GlcNAc(b1-6)]Man(a1-6)[Gal(b1-3)GlcNAc(b1-2)Man(a1-3)]Man(b1-4)GlcNAc(b1-4)GlcNAc
Procedure, shortened: as §1

[22] = biological target: Gal(b1-3)GlcNAc(b1-3)Gal(b1-3)GlcNAc
Procedure, shortened: as §1

[23] = biological target: Gal(b1-3)GlcNAc(b1-3)Gal(b1-4)Glc
Procedure, shortened: as §1

[24] = biological target: Gal(b1-3)GlcNAc(b1-3)Gal(b1-4)GlcNAc
Procedure, shortened: as §1

B1: Epa8 (Candida glabrata) (protein)
chain: MGSSHHHHHHSSGLVPRGSHMASSRALSDYPLGCSPLLGTKLTPGLSMELYEYPLDNHGIGPHCWDPAYLNPEYPRTGFESHKLIGTAQNVMSLNFEHRTQDCHVEFSNLPASFNFPDQITLTNFTMLLYGYFKPKESGRYRFHMEADDLLLMNLGAGNAFDCCAHEATRNNLGDYIAYDIWAGTRKDVEVFLEKEVFYPLRLFFNNRDGRAALDFSYYLNGATEPGTDIPELLFSLPDGESCPAYI
glycan array binding signal (z-score) (Gal(a1-3)Gal(b1-4)GlcNAc): -0.245 | glycan array binding signal (z-score) [1]: -0.268 | glycan array binding signal (z-score) [2]: 0.165 | glycan array binding signal (z-score) [3]: -0.155 | glycan array binding signal (z-score) [4]: 1.02 | glycan array binding signal (z-score) [5]: -0.506 | glycan array binding signal (z-score) [6]: 0.943 | glycan array binding signal (z-score) (Gal(a1-3)GalNAc): -0.604 | glycan array binding signal (z-score) [7]: -0.46 | glycan array binding signal (z-score) [8]: 0.332 | glycan array binding signal (z-score) (Gal(a1-4)Gal(b1-4)Glc): -0.101 | glycan array binding signal (z-score) (Gal(a1-4)Gal(b1-4)GlcNAc): 0.119 | glycan array binding signal (z-score) [9]: -0.074 | glycan array binding signal (z-score) [10]: -0.64 | glycan array binding signal (z-score) (Gal(a1-4)GlcNAc): 1.15 | glycan array binding signal (z-score) (Gal(a1-6)Glc): 0.995 | glycan array binding signal (z-score) (Gal(b1-2)Gal): -0.135 | glycan array binding signal (z-score) (Gal(b1-3)Gal): 0.171 | glycan array binding signal (z-score) (Gal(b1-3)Gal(b1-4)GlcNAc): -0.513 | glycan array binding signal (z-score) (Gal(b1-3)GalNAc): -0.049 | glycan array binding signal (z-score) [11]: 0.05 | glycan array binding signal (z-score) [12]: 0.025 | glycan array binding signal (z-score) (Gal(b1-3)GalNAc(b1-3)Gal): -0.026 | glycan array binding signal (z-score) [13]: 0.394 | glycan array binding signal (z-score) [14]: 1.06 | glycan array binding signal (z-score) [15]: 0.023 | glycan array binding signal (z-score) (Gal(b1-3)GlcNAc): -0.441 | glycan array binding signal (z-score) [16]: 1.57 | glycan array binding signal (z-score) [17]: -0.185 | glycan array binding signal (z-score) (Gal(b1-3)GlcNAc(b1-2)Man): 0.055 | glycan array binding signal (z-score) [18]: 0.751 | glycan array binding signal (z-score) [19]: -0.384 | glycan array binding signal (z-score) [20]: 0.501 | glycan array binding signal (z-score) [21]: -0.014 | glycan array binding signal (z-score) [22]: -0.555 | glycan array binding signal (z-score) [23]: -0.437 | glycan array binding signal (z-score) [24]: -0.812
